In publication PMC10298087:
Results are given in words; binding and its absence hold for the method and conditions named. Binding seen in cells or lysates may run through a third protein. Here binding means that the protein was enriched with, or labelled near, the bait; the list need not be complete.

Chains of the proteins cited; added tags and fusions are not shown.
UniProt P15976: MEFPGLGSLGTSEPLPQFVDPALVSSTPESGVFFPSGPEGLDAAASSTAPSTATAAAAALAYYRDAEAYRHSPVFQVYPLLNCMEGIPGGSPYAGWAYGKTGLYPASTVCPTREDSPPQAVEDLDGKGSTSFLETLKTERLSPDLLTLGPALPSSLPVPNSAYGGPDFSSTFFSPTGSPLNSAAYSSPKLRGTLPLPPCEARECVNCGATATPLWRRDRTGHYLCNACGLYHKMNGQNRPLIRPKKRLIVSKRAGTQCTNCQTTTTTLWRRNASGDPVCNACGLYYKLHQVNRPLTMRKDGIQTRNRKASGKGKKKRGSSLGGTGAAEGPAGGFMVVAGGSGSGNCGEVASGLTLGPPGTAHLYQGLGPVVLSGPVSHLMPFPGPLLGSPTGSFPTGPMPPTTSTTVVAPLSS
UniProt C9JN71: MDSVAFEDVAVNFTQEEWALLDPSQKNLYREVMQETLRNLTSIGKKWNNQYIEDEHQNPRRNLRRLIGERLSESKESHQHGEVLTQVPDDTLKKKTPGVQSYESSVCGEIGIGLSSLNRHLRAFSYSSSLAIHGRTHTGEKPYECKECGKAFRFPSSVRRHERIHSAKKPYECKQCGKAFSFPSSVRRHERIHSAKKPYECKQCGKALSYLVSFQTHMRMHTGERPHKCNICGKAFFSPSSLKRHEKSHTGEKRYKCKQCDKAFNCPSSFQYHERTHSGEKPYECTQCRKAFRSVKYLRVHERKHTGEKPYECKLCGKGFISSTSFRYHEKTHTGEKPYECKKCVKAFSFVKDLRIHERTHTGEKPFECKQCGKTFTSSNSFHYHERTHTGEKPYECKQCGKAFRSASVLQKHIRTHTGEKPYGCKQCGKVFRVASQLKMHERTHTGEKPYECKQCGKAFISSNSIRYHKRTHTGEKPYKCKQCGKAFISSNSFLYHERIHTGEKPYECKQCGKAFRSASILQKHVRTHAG
UniProt O75373: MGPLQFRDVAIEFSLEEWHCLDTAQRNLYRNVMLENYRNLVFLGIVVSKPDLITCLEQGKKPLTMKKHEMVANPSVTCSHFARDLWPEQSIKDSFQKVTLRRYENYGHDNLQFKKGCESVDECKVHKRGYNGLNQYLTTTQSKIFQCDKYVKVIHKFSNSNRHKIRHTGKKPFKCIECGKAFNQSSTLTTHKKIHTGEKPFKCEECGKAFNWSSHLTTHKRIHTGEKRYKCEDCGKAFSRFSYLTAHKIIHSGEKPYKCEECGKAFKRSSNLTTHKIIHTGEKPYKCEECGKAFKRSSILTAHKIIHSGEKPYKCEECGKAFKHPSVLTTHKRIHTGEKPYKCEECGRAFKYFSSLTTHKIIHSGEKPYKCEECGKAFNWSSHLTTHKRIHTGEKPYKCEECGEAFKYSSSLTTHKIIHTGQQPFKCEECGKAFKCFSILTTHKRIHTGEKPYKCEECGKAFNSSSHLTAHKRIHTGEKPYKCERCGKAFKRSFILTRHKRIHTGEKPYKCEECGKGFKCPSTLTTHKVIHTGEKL
UniProt P51814: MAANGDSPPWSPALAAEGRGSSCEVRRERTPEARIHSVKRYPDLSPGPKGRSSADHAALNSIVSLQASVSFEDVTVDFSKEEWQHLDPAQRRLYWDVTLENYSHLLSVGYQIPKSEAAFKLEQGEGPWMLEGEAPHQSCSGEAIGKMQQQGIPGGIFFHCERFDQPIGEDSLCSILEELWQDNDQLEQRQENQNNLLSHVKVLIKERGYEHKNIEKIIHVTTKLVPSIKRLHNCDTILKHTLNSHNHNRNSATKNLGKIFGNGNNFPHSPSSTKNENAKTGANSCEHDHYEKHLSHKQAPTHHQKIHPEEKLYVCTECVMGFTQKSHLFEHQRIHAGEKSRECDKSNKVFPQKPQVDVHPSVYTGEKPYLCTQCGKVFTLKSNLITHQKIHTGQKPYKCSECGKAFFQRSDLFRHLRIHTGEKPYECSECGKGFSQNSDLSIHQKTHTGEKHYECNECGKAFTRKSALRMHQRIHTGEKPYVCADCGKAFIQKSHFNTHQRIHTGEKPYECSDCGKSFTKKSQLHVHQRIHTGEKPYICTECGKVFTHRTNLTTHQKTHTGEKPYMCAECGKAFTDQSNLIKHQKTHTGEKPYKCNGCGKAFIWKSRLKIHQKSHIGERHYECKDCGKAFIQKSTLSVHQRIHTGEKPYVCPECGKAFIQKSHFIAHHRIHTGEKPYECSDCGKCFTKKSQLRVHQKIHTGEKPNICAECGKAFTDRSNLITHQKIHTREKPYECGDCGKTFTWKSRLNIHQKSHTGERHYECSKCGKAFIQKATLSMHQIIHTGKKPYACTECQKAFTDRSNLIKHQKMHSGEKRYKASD
UniProt Q6P2D0: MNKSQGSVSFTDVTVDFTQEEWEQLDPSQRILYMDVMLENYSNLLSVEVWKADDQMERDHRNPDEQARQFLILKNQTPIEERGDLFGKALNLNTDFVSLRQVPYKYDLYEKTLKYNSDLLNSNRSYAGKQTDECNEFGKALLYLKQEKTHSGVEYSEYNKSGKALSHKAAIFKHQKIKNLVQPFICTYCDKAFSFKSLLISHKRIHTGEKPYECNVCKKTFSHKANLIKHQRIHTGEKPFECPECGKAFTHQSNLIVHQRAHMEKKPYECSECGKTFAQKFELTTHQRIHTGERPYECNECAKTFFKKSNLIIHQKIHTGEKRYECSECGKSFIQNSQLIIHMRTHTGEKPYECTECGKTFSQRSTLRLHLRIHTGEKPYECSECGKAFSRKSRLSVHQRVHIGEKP
UniProt Q96SK3: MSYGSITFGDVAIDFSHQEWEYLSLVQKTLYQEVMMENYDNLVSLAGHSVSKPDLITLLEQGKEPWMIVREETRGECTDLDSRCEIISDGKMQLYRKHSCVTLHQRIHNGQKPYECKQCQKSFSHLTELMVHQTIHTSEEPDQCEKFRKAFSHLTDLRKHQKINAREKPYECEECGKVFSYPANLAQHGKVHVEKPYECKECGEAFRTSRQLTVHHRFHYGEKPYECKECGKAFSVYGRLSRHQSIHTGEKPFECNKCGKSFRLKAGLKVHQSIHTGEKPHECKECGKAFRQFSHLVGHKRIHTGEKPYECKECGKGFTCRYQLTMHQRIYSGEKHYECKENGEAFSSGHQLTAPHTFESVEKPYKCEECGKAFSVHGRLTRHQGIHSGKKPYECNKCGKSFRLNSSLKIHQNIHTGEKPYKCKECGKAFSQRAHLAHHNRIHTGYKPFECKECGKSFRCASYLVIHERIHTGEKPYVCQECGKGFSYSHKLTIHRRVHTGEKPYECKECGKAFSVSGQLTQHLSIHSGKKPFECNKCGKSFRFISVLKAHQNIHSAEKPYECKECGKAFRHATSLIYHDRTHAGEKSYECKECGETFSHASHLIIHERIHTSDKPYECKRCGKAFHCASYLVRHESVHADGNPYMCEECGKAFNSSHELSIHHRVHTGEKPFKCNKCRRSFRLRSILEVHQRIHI
UniProt P17029: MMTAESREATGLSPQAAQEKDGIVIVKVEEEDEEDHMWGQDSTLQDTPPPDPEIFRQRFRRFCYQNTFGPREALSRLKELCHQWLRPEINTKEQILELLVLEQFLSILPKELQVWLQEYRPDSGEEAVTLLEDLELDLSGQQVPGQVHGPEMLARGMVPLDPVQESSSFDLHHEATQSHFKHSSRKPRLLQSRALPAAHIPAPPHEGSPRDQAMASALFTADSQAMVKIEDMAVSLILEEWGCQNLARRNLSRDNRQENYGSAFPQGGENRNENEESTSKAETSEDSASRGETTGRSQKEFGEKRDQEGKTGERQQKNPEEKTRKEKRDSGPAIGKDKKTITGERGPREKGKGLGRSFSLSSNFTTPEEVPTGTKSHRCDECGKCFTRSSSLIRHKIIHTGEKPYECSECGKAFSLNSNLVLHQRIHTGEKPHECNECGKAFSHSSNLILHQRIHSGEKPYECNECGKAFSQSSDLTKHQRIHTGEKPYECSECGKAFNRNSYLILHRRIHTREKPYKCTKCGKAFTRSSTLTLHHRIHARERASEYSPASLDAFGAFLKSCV
UniProt Q5FWF6: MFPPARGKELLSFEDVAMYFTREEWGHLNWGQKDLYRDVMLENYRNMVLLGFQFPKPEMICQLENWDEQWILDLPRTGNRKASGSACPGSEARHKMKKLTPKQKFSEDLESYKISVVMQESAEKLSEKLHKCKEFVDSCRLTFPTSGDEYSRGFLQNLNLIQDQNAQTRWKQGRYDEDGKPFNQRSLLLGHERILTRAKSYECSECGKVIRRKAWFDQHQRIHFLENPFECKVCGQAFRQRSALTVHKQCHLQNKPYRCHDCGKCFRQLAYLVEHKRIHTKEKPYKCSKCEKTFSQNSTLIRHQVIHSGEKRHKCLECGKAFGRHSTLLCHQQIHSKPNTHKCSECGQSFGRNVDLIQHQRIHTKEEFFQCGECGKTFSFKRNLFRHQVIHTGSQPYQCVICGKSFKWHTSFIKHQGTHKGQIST
UniProt Q86UQ0: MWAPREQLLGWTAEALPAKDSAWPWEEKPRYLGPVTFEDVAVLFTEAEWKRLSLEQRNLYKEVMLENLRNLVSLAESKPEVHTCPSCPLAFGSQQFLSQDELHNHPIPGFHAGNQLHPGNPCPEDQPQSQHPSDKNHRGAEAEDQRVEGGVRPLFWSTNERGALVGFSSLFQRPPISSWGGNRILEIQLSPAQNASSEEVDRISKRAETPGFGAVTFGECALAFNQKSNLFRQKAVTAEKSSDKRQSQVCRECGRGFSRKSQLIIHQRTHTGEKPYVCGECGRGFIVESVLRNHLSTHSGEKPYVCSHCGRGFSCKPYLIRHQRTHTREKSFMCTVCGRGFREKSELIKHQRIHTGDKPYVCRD
UniProt Q6P280: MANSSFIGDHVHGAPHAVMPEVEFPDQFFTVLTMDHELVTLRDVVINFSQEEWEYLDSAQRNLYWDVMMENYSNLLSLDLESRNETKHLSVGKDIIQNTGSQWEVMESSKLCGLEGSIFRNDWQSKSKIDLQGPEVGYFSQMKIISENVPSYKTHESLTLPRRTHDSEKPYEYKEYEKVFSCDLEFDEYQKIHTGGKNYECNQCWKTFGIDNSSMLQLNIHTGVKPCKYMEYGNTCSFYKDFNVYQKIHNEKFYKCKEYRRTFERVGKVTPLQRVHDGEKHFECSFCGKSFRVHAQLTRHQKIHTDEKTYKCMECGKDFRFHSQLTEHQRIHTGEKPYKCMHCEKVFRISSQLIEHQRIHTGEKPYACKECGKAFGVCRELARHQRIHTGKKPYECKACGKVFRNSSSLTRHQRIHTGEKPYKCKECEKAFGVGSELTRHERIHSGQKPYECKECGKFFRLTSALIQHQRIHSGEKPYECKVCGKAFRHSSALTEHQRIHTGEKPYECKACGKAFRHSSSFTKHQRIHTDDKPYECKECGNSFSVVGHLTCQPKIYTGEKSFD
UniProt O43345: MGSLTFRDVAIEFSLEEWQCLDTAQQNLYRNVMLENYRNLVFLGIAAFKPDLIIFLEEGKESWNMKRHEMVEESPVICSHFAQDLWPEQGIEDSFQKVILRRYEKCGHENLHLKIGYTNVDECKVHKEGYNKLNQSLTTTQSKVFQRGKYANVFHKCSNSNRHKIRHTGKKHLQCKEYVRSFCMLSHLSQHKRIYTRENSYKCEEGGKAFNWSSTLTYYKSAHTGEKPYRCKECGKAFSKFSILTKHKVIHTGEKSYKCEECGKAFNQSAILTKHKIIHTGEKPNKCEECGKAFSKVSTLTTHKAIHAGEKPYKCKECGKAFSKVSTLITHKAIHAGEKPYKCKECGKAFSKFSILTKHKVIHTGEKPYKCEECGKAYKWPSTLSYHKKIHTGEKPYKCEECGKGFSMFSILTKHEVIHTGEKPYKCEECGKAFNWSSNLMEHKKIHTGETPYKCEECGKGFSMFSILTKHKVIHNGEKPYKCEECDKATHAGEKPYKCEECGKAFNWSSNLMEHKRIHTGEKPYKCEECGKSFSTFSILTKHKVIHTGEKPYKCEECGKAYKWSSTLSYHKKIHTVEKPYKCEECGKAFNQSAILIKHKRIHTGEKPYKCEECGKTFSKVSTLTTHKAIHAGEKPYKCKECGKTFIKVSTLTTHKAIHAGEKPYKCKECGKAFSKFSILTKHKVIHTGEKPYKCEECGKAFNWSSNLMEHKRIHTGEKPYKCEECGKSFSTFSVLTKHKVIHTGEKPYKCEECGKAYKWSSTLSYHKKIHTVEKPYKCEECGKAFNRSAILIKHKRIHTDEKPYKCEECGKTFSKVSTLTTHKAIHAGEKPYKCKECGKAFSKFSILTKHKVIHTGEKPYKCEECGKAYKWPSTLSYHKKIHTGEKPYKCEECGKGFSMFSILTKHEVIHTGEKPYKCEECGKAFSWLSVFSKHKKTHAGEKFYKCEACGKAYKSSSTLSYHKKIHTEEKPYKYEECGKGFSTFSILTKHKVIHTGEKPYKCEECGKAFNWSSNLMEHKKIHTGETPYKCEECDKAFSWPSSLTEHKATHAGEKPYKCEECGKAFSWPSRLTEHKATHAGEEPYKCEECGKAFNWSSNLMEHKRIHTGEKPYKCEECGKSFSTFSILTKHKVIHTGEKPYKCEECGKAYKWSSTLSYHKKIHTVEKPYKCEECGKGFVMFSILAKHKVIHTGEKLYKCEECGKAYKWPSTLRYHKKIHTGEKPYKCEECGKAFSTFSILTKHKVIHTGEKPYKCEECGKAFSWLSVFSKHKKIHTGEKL

target: T1, TRIM28-K304Q (endogenous, knock-in K562 clone Q1) (human (endogenous in K562)) (UniProt Q13263); test: affinity purification with mass spectrometry; IP of endogenous TRIM28 or TRIM28-K304Q from K562 cells with anti-TRIM28-N-conjugated protein A beads; washed, eluted with the antibody-generating peptide; MS (LTQ-Orbitrap Velos, Mascot)
T1 sequence: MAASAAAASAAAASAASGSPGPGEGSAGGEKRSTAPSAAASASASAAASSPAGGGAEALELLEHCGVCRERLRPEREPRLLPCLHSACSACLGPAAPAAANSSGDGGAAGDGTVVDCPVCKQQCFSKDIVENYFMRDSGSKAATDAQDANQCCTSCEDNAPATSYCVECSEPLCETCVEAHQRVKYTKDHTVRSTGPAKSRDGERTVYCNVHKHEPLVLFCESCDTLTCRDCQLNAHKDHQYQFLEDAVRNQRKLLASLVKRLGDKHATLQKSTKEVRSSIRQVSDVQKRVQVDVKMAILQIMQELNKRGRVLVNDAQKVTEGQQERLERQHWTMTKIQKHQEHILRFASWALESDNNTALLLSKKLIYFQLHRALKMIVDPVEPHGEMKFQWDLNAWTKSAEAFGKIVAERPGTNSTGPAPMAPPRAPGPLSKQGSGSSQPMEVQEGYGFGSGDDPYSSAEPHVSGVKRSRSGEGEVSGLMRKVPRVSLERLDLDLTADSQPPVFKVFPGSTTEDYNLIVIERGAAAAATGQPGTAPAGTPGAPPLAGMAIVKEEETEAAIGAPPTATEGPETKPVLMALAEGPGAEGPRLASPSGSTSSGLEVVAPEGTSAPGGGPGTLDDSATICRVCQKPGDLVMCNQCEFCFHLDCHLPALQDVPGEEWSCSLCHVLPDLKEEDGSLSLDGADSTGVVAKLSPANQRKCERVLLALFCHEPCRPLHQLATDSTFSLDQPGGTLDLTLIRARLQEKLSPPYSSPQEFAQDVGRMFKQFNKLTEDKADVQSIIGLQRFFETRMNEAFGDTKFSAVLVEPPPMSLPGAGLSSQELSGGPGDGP

Substance | binding
ZNF764 (from UniProt Q96H86 1-408) | binds
transcription factor GATA1 (from UniProt P15976 1-413) | binds
ZNF92 (from UniProt Q03936 1-586) | binds
ZNF736 (from UniProt B4DX44 1-427) | binds
ZNF708 (from UniProt P17019 1-563) | binds
ZNF250 (from UniProt P15622 1-560) | binds
ZNF316 (from UniProt A6NFI3 1-1004) | binds
ZNF417 (from UniProt Q8TAU3 1-575) | binds
ZNF274 (from UniProt Q96GC6 1-653) | binds
ZNF273 (from UniProt Q14593 1-569) | binds
ZNF878 (from UniProt C9JN71 1-531) | binds
ZNF441 (from UniProt Q8N8Z8 1-693) | binds
ZNF681 (from UniProt Q96N22 1-645) | binds
ZNF688 (from UniProt P0C7X2 1-276) | binds
ZNF728 (from UniProt P0DKX0 1-622) | binds
ZNF182 (from UniProt P17025 1-639) | binds
HNRNP H (human (endogenous in K562)) | binds
ZNF737 (from UniProt O75373 1-536) | binds
ZNF98 (from UniProt A6NK75 1-572) | binds
ZNF626 (from UniProt Q68DY1 1-528) | binds
ZNF140 (from UniProt P52738 1-457) | binds

target: wild-type TRIM28 (endogenous, K562 cells) (human (endogenous in K562)) (UniProt Q13263); test: as above

Substance | binding
ZNF624 (from UniProt Q9P2J8 1-865) | binds
ZNF620 (from UniProt Q6ZNG0 1-422) | binds
ZNF678 (from UniProt Q5SXM1 1-525) | binds
ZNF805 (from UniProt Q5CZA5 1-627) | binds
ZNF764 (from UniProt Q96H86 1-408) | binds
ZNF17 (from UniProt P17021 1-662) | binds
transcription factor GATA1 (from UniProt P15976 1-413) | binds
ZNF92 (from UniProt Q03936 1-586) | binds
ZNF136 (from UniProt P52737 1-540) | binds
ZNF563 (from UniProt Q8TA94 1-476) | binds
ZNF776 (from UniProt Q68DI1 1-518) | binds
ZNF736 (from UniProt B4DX44 1-427) | binds
ZNF101 (from UniProt Q8IZC7 1-436) | binds
ZNF235 (from UniProt Q14590 1-738) | binds
ZNF708 (from UniProt P17019 1-563) | binds
ZNF197 (from UniProt O14709 1-1029) | binds
ZNF250 (from UniProt P15622 1-560) | binds
ZNF316 (from UniProt A6NFI3 1-1004) | binds
ZNF417 (from UniProt Q8TAU3 1-575) | binds
ZNF274 (from UniProt Q96GC6 1-653) | binds
ZFP82 (from UniProt Q8N141 1-532) | binds
ZNF273 (from UniProt Q14593 1-569) | binds
ZNF354B (from UniProt Q96LW1 1-612) | binds

Substance | binding
ZNF41 (from UniProt P51814 1-821) | binds
ZNF441 (from UniProt Q8N8Z8 1-693) | binds
ZNF688 (from UniProt P0C7X2 1-276) | binds
ZNF728 (from UniProt P0DKX0 1-622) | binds
ZNF543 (from UniProt Q08ER8 1-600) | binds
ZNF480 (from UniProt Q8WV37 1-535) | binds
GCN1 (from UniProt Q92616 1-2671) | binds
ZNF383 (from UniProt Q8NA42 1-475) | binds
ZFP1 (from UniProt Q6P2D0 1-407) | binds
ZNF22 (from UniProt P17026 1-224) | binds
ZNF211 (from UniProt Q13398 1-564) | binds
ZNF84 (from UniProt P51523 1-738) | binds
ZNF726 (from UniProt A6NNF4 1-616) | binds
ZNF607 (from UniProt Q96SK3 1-696) | binds
ZNF699 (from UniProt Q32M78 1-642) | binds
ZKSC1 (from UniProt P17029 1-563) | binds
ZNF813 (from UniProt Q6ZN06 1-617) | binds
ZNF611 (from UniProt Q8N823 1-705) | binds
ZNF229 (from UniProt Q9UJW7 1-825) | binds
ZNF107 (from UniProt Q9UII5 1-783) | binds
ZNF184 (from UniProt Q99676 1-751) | binds
ZNF718 (from UniProt Q3SXZ3 1-478) | binds
ZNF468 (from UniProt Q5VIY5 1-522) | binds

Substance | binding
ZNF324B (from UniProt Q6AW86 1-544) | binds
ZNF701 (from UniProt Q9NV72 1-531) | binds
ZNF554 (from UniProt Q86TJ5 1-538) | binds
ZCCHC8 (from UniProt Q6NZY4 1-707) | binds
ZNF264 (from UniProt O43296 1-627) | binds
ZNF317 (from UniProt Q96PQ6 1-595) | binds
ZNF558 (from UniProt Q96NG5 1-402) | binds
ZNF33A (from UniProt Q06730 1-810) | binds
ZNF780A (from UniProt O75290 1-641) | binds
ZNF181 (from UniProt Q2M3W8 1-571) | binds
ZNF257 (from UniProt Q9Y2Q1 1-563) | binds
ZNF789 (from UniProt Q5FWF6 1-425) | binds
EHMT1 (from UniProt Q9H9B1 1-1298) | binds
ZNF311 (from UniProt Q5JNZ3 1-666) | binds
ZNF589 (from UniProt Q86UQ0 1-364) | binds
ZNF227 (from UniProt Q86WZ6 1-799) | binds
ZNF490 (from UniProt Q9ULM2 1-529) | binds
ZNF721 (from UniProt Q8TF20 1-911) | binds
ZNF552 (from UniProt Q9H707 1-407) | binds
ZNF529 (from UniProt Q6P280 1-563) | binds
ZNF749 (from UniProt O43361 1-778) | binds
ZNF791 (from UniProt Q3KP31 1-576) | binds
ZNF33B (from UniProt Q06732 1-778) | binds

Substance | binding
ZNF44 (from UniProt P15621 1-663) | binds
ZNF440 (from UniProt Q8IYI8 1-595) | binds
ZNF208 (from UniProt O43345 1-1280) | binds
ZNF7 (from UniProt P17097 1-686) | binds
ZNF419 (from UniProt Q96HQ0 1-510) | binds
ZNF564 (from UniProt Q8TBZ8 1-553) | binds
ZNF587B (from UniProt E7ETH6 1-402) | binds
ZNF845 (from UniProt Q96IR2 1-970) | binds
EHMT2 (from UniProt Q96KQ7 1-1210) | binds
ZNF45 (from UniProt Q02386 1-682) | binds
ZNF766 (from UniProt Q5HY98 1-468) | binds
ZNF320 (from UniProt A2RRD8 1-509) | binds
ZNF799 (from UniProt Q96GE5 1-643) | binds
ZNF615 (from UniProt Q8N8J6 1-731) | binds
ZNF583 (from UniProt Q96ND8 1-569) | binds
ZNF555 (from UniProt Q8NEP9 1-628) | binds
ZNF785 (from UniProt A8K8V0 1-405) | binds
ZNF57 (from UniProt Q68EA5 1-555) | binds
ZKSC8 (from UniProt Q15776 1-578) | binds
ZNF20 (from UniProt P17024 1-532) | binds
ZNF684 (from UniProt Q5T5D7 1-378) | binds
ZNF707 (from UniProt Q96C28 1-371) | binds
RBM7 (from UniProt Q9Y580 1-266) | binds
